# From the supplement of paper PMC7858590
# ± gives the standard deviation of the averaged measurements. In all, about 3,800 compounds were measured (“cell shape (eccentricity) Z-score vs DMSO control”: median about 1.1, lowest 2% from about -4.7 on). Some of the results follow.
# Test system: human monocyte-derived macrophages (M0)
# Assay: cell shape (eccentricity) Z-score vs DMSO control; higher = more elongated, M2-like morphology
# Details: 20 µM; 24 h; macrophage state: M0 (M-CSF)
row,SMILES,cell shape (Z-score)
1,CC(C)(C)NC(=O)[C@H]1CCC2C3CC[C@H]4NC(=O)C=C[C@]4(C)C3CC[C@@]21C (some centres undefined),0.645
2,COc1cc(C2OCC3C(c4ccc5c(c4)OCO5)OC(=O)C23)ccc1O (centres undefined),2.77
3,CCCCCCCCCCCCCCCCOP(=O)(O)OCC[N+](C)(C)C,0.672
4,COc1cc(OC)c(-c2c(OC)cc(OC)cc2OC)c(OC)c1,4.37
5,COc1cc(O)c(CCO)c2c1C(=O)C[C@@H](C)O2,2.13
6,CCC(=O)OCC(=O)[C@@]1(OC(=O)CC)[C@H](C)CC2C3C([C@@H](O)C[C@@]21C)[C@@]1(C)C=CC(=O)C=C1C[C@H]3Cl (some centres undefined),-0.0138
7,COc1ccc(C[C@H](N)C(=O)N[C@@H]2[C@@H](CO)OC(n3cnc4c(N(C)C)ncnc43)[C@@H]2O)cc1 (some centres undefined),-3.92
8,CCC(C)C(O)C(C)(O)/C=C/C1=CC2=C(Cl)C(=O)C(C)(O)C(O)C2=CO1 (centres undefined),-0.397
9,CCOC(=O)C(CCc1ccccc1)NC1CCc2ccccc2N(CC(=O)O)C1=O (centres undefined),-1.07
10,COc1ccc(-c2oc3cc(OC)c(OC)c(O)c3c(=O)c2OC)cc1OC,1.24
11,Cc1ccccc1N1C(=O)c2cc(S(N)(=O)=O)c(Cl)cc2NC1C (centres undefined),-0.955
12,COc1cc([C@@H]2c3cc4c(cc3C(OC3OC5COC(C)OC5C(O)C3O)C3OCC(=O)[C@@H]32)OCO4)cc(OC)c1O (some centres undefined),2.58
13,CC1=CC(=O)c2ccccc2C1=O,-4.32
14,Nc1cc(Nc2ccc(S(N)(=O)=O)cc2)ncn1,0.81
15,CC1(C)CC[C@@]2(C(=O)O)C(C1)C1=CCC3[C@@]4(C)CC[C@H](O[C@@H]5O[C@H](C(=O)O)[C@@H](O[C@H]6OC[C@](O)(CO)[C@H]6O)[C@H](O)[C@H]5O)C(C)(C)C4CC[C@@]3(C)[C@]1(C)C[C@H]2O (some centres undefined),2.82
16,O[C@]12CO[C@H](c3ccc4c(c3)OCO4)[C@H]1CO[C@@H]2c1ccc2c(c1)OCO2,-1.62 ± 1.1
17,COc1ccc(-n2nc3c4c([nH]cc-3c2=O)CCCCC4)cc1,1.21
18,COc1ccc(C2CC(=O)Oc3cc(O)cc(O)c32)cc1 (centres undefined),-0.542
19,O=C1Nc2cc(Br)ccc2/C1=C1/Nc2ccccc2/C1=N/O,5.17
20,Cc1ccccc1C(OCCN(C)C)c1ccccc1 (centres undefined),-0.651
21,CNCCCCOc1ccccc1Cc1ccccc1,4.84
22,CCCCOC(=O)c1ccc(O)cc1,1.53
23,COC(=O)[C@H]1[C@H]2C[C@H]3c4[nH]c5ccccc5c4CCN3C[C@H]2CC[C@@H]1O,2.17

# A different layout for some results above:
row	SMILES	cell shape (Z-score)
7	COc1ccc(C[C@H](N)C(=O)N[C@@H]2[C@@H](CO)OC(n3cnc4c(N(C)C)ncnc43)[C@@H]2O)cc1 (some centres undefined)	-3.92
8	CCC(C)C(O)C(C)(O)/C=C/C1=CC2=C(Cl)C(=O)C(C)(O)C(O)C2=CO1 (centres undefined)	-0.397
9	CCOC(=O)C(CCc1ccccc1)NC1CCc2ccccc2N(CC(=O)O)C1=O (centres undefined)	-1.07

# Remaining list, next part

row,SMILES,cell shape (Z-score)
1,Oc1ncnc2ccccc12,1.8
2,O=S(=O)(c1cccc2cnccc12)N1CCCNCC1,8.08 ± 1.5
3,C=CCNC1=C2C[C@@H](C)C[C@H](OC)[C@H](O)[C@@H](C)/C=C(\C)[C@H](OC(N)=O)[C@@H](OC)/C=C\C=C(/C)C(=O)NC(=CC1=O)C2=O,2.37
4,C=CC(C)(C)[C@@]12C[C@H]3C(=O)N[C@H]([C@@H](C)CC)C(=O)N3[C@@H]1Nc1ccccc12,-1.4
5,COC(=O)C1=C(C)NC(C)=C([N+](=O)[O-])C1c1ccccc1C(F)(F)F (centres undefined),2.59
6,C[C@@H]1O[C@@H](OC[C@H]2O[C@@H](Oc3c(-c4ccc(O)c(O)c4)oc4cc(O)cc(O)c4c3=O)[C@H](O)[C@@H](O)[C@@H]2O)[C@H](O)[C@H](O)[C@H]1O,3.23
7,C=C(CCCCCCCC(=O)O)C(=O)O,0.953
8,CNCC[C@@H](Oc1ccccc1C)c1ccccc1,0.617
9,COc1ccc(N(C(=O)CCl)C(C(=O)NCCc2ccccc2)c2cccs2)cc1Cl (centres undefined),-2.11
10,CC1(C)NC(=O)N(c2ccc([N+](=O)[O-])c(C(F)(F)F)c2)C1=O,2.1
11,CC(C)C1C2CCC(C2)C1N (centres undefined),-3.98
12,NS(=O)(=O)C#Cc1ccccc1,3.29
13,COc1ccc(C2CC(=O)c3ccccc3O2)cc1 (centres undefined),1.92
14,O=C(O)c1cc(-c2ccc(F)cc2F)ccc1O,0.278
15,Cc1cc2c(cc1O[C@@H]1O[C@H](CO[C@@H]3OC[C@@H](O)[C@H](O)[C@H]3O)[C@@H](O)[C@H](O)[C@H]1O)C(=O)c1ccccc1C2=O,2.61 ± 1.1
16,CN=C(NC)NCc1ccc(OC)cc1,-1.04
17,COC(=O)[C@@]1(C)CCC[C@]2(C)c3ccc(O)c(C(C)C)c3CCC12 (some centres undefined),-0.308
18,CC1(C)CC[C@]2(C(=O)O[C@@H]3O[C@H](CO)[C@@H](O)[C@H](O)[C@H]3O)CC[C@]3(C)C(=CCC4[C@@]5(C)CC[C@H](O[C@@H]6O[C@H](C(=O)O)[C@@H](O[C@@H]7O[C@H](CO)[C@@H](O)[C@H](O)[C@H]7O)[C@H](O)[C@H]6O)C(C)(C)C5CC[C@]43C)C2C1 (some centres undefined),0.657
19,CCC(=O)OCC(=O)C1(OC(=O)CC)C(C)CC2C3CCC4=CC(=O)C=CC4(C)C3(Cl)C(O)CC21C (centres undefined),-0.731
20,O=C1CC(c2ccccc2)Oc2cc(O)cc(O)c21 (centres undefined),-3.13
21,CC(C)[C@@H]1CC[C@@]2(C)[C@H](O)CC[C@@](C)(O)[C@@H]2[C@@H]1OC(=O)/C=C/c1ccccc1,-0.949
22,Cc1cc(C)c(N(Cc2ccccc2)S(=O)(=O)c2ccc(OCCNC(=O)c3cc4ccccc4o3)cc2)c(C(=O)NO)c1,0.668
23,O=S1(=O)c2cccc3cccc(c23)N1CCCN1CCN(c2ccc(F)cc2)CC1,0.323

# 4 records drawn at random from those above:
row,SMILES,cell shape (Z-score)
10,CC1(C)NC(=O)N(c2ccc([N+](=O)[O-])c(C(F)(F)F)c2)C1=O,2.1
23,O=S1(=O)c2cccc3cccc(c23)N1CCCN1CCN(c2ccc(F)cc2)CC1,0.323
3,C=CCNC1=C2C[C@@H](C)C[C@H](OC)[C@H](O)[C@@H](C)/C=C(\C)[C@H](OC(N)=O)[C@@H](OC)/C=C\C=C(/C)C(=O)NC(=CC1=O)C2=O,2.37
23,COC(=O)[C@H]1[C@H]2C[C@H]3c4[nH]c5ccccc5c4CCN3C[C@H]2CC[C@@H]1O,2.17

# The list goes on:

row,SMILES,cell shape (Z-score)
1,O=C1CC(c2ccc(O)cc2)Oc2cc(O[C@@H]3O[C@H](CO)[C@@H](O)[C@H](O)[C@H]3O)cc(O)c21 (some centres undefined),0.887
2,Cc1[nH]c(=O)c(C#N)cc1-c1ccncc1,4.18
3,CC(=O)C1C(=O)[C@@H]2[C@H]3c4c[nH]c5cccc(c45)C[C@H]3C(C)(C)N2C1=O (some centres undefined),-2.33
4,OCCN1CCN(CCCN2c3ccccc3Sc3ccc(Cl)cc32)CC1,-1.01
5,C/C(=C\C=C\C(C)C)CC/C=C(\C)CCOc1c(O)cc2c(c1O)CNC2=O,1.89
6,COc1cc(N2CCC(N3CCN(C)CC3)CC2)ccc1Nc1ncc(Cl)c(Nc2ccccc2S(=O)(=O)C(C)C)n1,2.09
7,CN(C)C(=N)NC(=N)N,1.78
8,NCCC(=O)N[C@@H](Cc1cnc[nH]1)C(=O)O.[Zn+3],0.66
9,O=C(Nc1ccccc1)OCC(CN1CCCCC1)OC(=O)Nc1ccccc1 (centres undefined),1.03
10,Cc1noc(C)c1NC(=O)Nc1ccc2c(c1)C(=O)N([C@@H](C)CO)C[C@@H](C)[C@@H](CN(C)CC1CCCCC1)O2,3.18
11,COC1CCC(C(=O)c2ccc3nc4c(cc3c2)CCCO4)CC1 (centres undefined),-0.0555
12,CCCCC1C(=O)N(c2ccccc2)N(c2ccccc2)C1=O,-2.01
13,C=C1C(=O)O[C@@H]2[C@H]3C(=C)[C@@H](O[C@@H]4O[C@H](CO)[C@@H](OC(=O)/C=C/c5ccc(O)c(O)c5)[C@H](O)[C@H]4O)C[C@H]3C(=C)C[C@@H](O)[C@@H]12,1.59
14,Cn1cnc2cc3c(Nc4cccc(Br)c4)ncnc3cc21,0.448
15,CC(=O)Nc1ccc(C(=O)Nc2ccc(F)cc2N)cc1,5.63
16,O=C1c2ccccc2-c2nc3nonc3nc21,-6.25
17,C=C[C@H]1[C@H](O[C@@H]2O[C@H](CO)[C@@H](O)[C@H](O)[C@H]2O)OC=C2C(=O)OCC[C@]21O,0.75
18,COc1c(O[C@@H]2O[C@H](C(=O)O)[C@@H](O)[C@H](O)[C@H]2O)cc2oc(-c3ccc(O)cc3)cc(=O)c2c1O,-0.54 ± 3.8
19,COc1c2ccoc2cc2oc(C)cc(=O)c12,1.8
20,CN1C(C(=O)Nc2ccccn2)C(=O)c2ccccc2S1(=O)=O (centres undefined),1.33
21,CCCCS(=O)(=O)N[C@@H](Cc1ccc(OCCCCC2CCNCC2)cc1)C(=O)O,-0.679
22,CCC[C@@H]1C[C@@H](C(=O)N[C@@H](C2O[C@H](SC)[C@H](O)[C@@H](O)[C@H]2O)[C@H](C)Cl)N(C)C1 (some centres undefined),1.78
23,COc1ccc(CN(CCN(C)C)c2ncccn2)cc1,4.79

row,SMILES,cell shape (Z-score)
1,O=c1cc(-c2cccc3c2Sc2ccccc2S3)oc(N2CCOCC2)c1,7.53
2,CN1CCN(C2=Nc3cc(F)ccc3Cc3ccccc32)CC1,1.25
3,CC1C(=O)c2cc3c(cc2CCN(C)Cc2c1ccc1c2OCO1)OCO3 (centres undefined),-1.3 ± 0.27
4,CCc1ccc2c(-c3cccc(Cl)c3)nc(=O)n(CC)c2n1,0.205
5,COc1cccc(NC(=O)C=Cc2ccc(Cl)cc2)c1,5.64
6,C=C[C@@]1(C)CC(=O)[C@@]2(O)[C@](C)(O1)[C@@H](O)[C@@H](O)C1C(C)(C)CC[C@H](O)[C@@]12C (some centres undefined),0.963
7,CC(=O)OCC(=O)[C@H]1CCC2C3CCC4=CC(=O)CC[C@]4(C)C3CC[C@@]21C (some centres undefined),2.26
8,COC(=O)C1=CO[C@@H](O[C@@H]2O[C@H](CO)[C@@H](O)[C@H](O)[C@H]2O)[C@H]2[C@@H]1[C@H](OC(=O)/C=C/c1ccc(O)cc1)C[C@]2(C)OC(C)=O,2.25
9,COc1ccc(-c2cc(=O)c3c(OC)c(OC)c(OC)cc3o2)cc1OC,3.99
10,Nc1nc(Cl)nc2c1ncn2[C@@H]1O[C@H](CO)[C@@H](O)[C@@H]1F,0.675
11,C/C=C/C(=O)N(CC)c1ccccc1C,2.27
12,N#CC(C#N)=C(N)/C(C#N)=C/c1cc(O)c(O)c(O)c1,0.676
13,O=c1c(O[C@@H]2O[C@H](CO)[C@H](O)[C@H](O)[C@H]2O)c(-c2ccc(O)cc2)oc2cc(O)cc(O)c12,1.22
14,COc1c(C2OCC(O)C(O)C2O)c(O)cc2oc(-c3ccc(OC4OC(C)C(O)C(O)C4O)cc3)cc(=O)c12 (centres undefined),-1.02
15,COc1ccc(S(=O)(=O)N2c3ccc(Cl)cc3[C@](O)(c3ccccc3Cl)[C@@H]2C(=O)N2CCC[C@H]2C(N)=O)cc1OC,1.6
16,COc1c(O)cc2c(c1O)C(=O)OC(C)C2O (centres undefined),-0.537
17,CC(C)(C)NCC(O)COc1cccc2c1CCCC2=O (centres undefined),1.87
18,O=c1c(-c2ccc(O)cc2)coc2cc(O)cc(O)c12,4.15
19,COc1ccc(-c2coc3c(OC)c(OC)cc(OC4OC(CO)C(O)C(O)C4OC4OCC(O)C(O)C4O)c3c2=O)cc1 (centres undefined),0.226
20,CC(=O)OC[C@@]12C(=O)C[C@@H](C)[C@]3(C[C@@H](c4ccoc4)OC3=O)[C@H]1CC[C@H](OC(C)=O)[C@]21CO1,-0.129
